# Test results published in PubChem BioAssay AID662 (National Center for Advancing Translational Sciences (NCATS), 2007).
# The other results are listed elsewhere or left out. The main result of the screen is listed elsewhere. These columns were measured beside it and carry no call. Most of these compounds were active or inconclusive in the main read-out, so they are no random draw. The note in brackets gives the kind of curve behind each potency; many fits are weak.
# Test: Cell signaling CRE-BLA (Fsk stim)
# Settings: CHO CRE-bla reporter (cAMP response element driving beta-lactamase), forskolin EC10, beta-lactamase ratio; measured here: 460 nm blue channel
# Summary of the method: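 Titrated compounds plus EC10 NKH 477 on CHO CRE-bla cells, 3 h, 37 °C. CCF4, 2 h RT. Ratio 460/530 nm → AC50.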
row,SMILES,AC50
1,O=S(=O)(c1ccc2c(c1)OCCO2)N1CCC(n2cnc3cc(F)ccc32)CC1,"3.98 µM [rising, partial curve]"
2,COc1ccc(CCn2c(-n3nc(C)cc3C)nc3c2c(=O)[nH]c(=O)n3C)cc1,"0.0631 µM [rising, full curve, poor fit]"
3,C=CCc1cccc(CNc2nc3ccccc3n2CCN2CCOCC2)c1O,"6.31 µM [falling, full curve, poor fit]"
4,CN(C)c1nc(SCCOC(=O)Nc2ccccc2)nc(N(C)C)n1,"10 µM [rising, partial curve]"
5,N#Cc1sc2nc3c(c(-c4ccco4)c2c1N)CCCC3,"5.01 µM [falling, full curve]"
6,CC1CN(C(=O)CSc2ncnc3sccc23)CC(C)O1 (stereo unspecified),"2.51 µM [falling, partial curve]"
7,CN(C)c1ncc2ncc(=O)n(Cc3ccc(F)cc3)c2n1,"12.6 µM [rising, partial curve]"
8,O=C1C2=C(Nc3ccccc3SC2c2ccco2)c2ccccc21 (stereo unspecified),"10 µM [falling, single point]"
9,NC(=O)c1cnn2c1NC(c1ccc(F)cc1)CC2C(F)(F)F (stereo unspecified),"25.1 µM [rising, single point]"
10,O=C(Nc1nccs1)c1cccc(S(=O)(=O)N2CCOCC2)c1,"0.316 µM [falling, full curve]"
11,CCN1CCc2c(sc(NC(=O)c3ccc(S(=O)(=O)N4CCOCC4)cc3)c2C(=O)OC)C1,"12.6 µM [rising, single point]"
12,CCc1nc2ccccc2c(C(=O)OCC(=O)NCCCN2CCCC2=O)c1C,"7.94 µM [rising, partial curve]"
13,CC(=O)c1sc2nc(SCC(=O)N3CCCCC3)[nH]c(=O)c2c1C,"12.6 µM [falling, partial curve]"
14,COc1ccc(-n2nnnc2SCC(=O)Nc2ccc3c(c2)OCCO3)cc1OC,"12.6 µM [rising, partial curve]"
15,C=C(CO)[C@H]1Cc2c(ccc3c(=O)c4c(oc23)COc2cc(OC)c(OC)cc2-4)O1,"2 µM [rising, partial curve, poor fit]"
16,CC(C)(C)N(Cc1ccccc1)C(=O)c1ccc2c(c1)OCCO2,"7.94 µM [rising, partial curve, poor fit]"
17,CCNc1cccc2c1C(=O)N(C)C2=O,"12.6 µM [rising, partial curve]"
18,CCN(CC)S(=O)(=O)c1cccc(C(=O)Nc2nc3cc4c(cc3s2)OCCO4)c1,"0.00398 µM [falling, full curve, poor fit]"
19,CC(=O)N1CCCc2cc(S(=O)(=O)N3CCc4ccccc4C3)ccc21,"5.01 µM [rising, single point]"
20,COc1ccccc1OCc1nc(C#N)c(N2CC(C)CC(C)C2)o1 (stereo unspecified),"10 µM [rising, partial curve]"
21,O=S(=O)(Nc1ccn(-c2ccccc2)n1)c1ccc(Br)cc1,"12.6 µM [falling, single point]"
22,CNC(=O)[C@H]1O[C@H](n2cnc3c(NCc4cccc(I)c4)ncnc32)[C@@H](O)[C@@H]1O,"31.6 µM [rising, partial curve, poor fit]"

row,SMILES,AC50
1,COc1ccccc1N1CCN(C(=O)CSc2nnc(NC(=O)C3CC3)s2)CC1,"0.00398 µM [falling, full curve, poor fit]"
2,COC(=O)c1ccc(OCC2c3cc(OC)c(OC)cc3CCN2C(=O)c2ccco2)cc1 (stereo unspecified),"0.316 µM [rising, full curve]"
3,COc1ccc(CNc2ccnc(-c3cccnc3)n2)c(OC)c1,"10 µM [rising, partial curve]"
4,Cc1ccc(N2CCCCn3c2nc2c3c(=O)n(CC(=O)O)c(=O)n2C)cc1,"0.158 µM [falling, single point]"
5,CCOc1ccc(C2C=C(c3ccc(C)cc3)Nc3nnnn32)cc1 (stereo unspecified),"12.6 µM [rising, single point]"
6,CN(C)Cc1ccccc1-c1nc(N2CCOCC2)c2ccccc2n1,"6.31 µM [rising, partial curve]"
7,COc1ncc2nc(-c3cc(F)cc(F)c3)c(=O)n(-c3ccccc3)c2n1,"25.1 µM [rising, partial curve]"
8,Cn1c(=O)c(-c2cc(F)cc(F)c2)nc2cnc(Nc3ccccc3)nc21,"0.631 µM [rising, full curve]"
9,CCc1ccc(-c2nc(CN3CCC(C(=O)NCc4ccccc4OC)CC3)c(C)o2)cc1,"7.94 µM [falling, partial curve]"
10,CCOC(=O)N1CCN(C(=O)CCn2nc(-c3ccccc3)ccc2=O)CC1,"0.1 µM [falling, full curve, poor fit]"
11,COc1ccc(-n2nc(C(=O)NCC(=O)NCc3ccco3)c3ccccc3c2=O)cc1Cl,"0.00398 µM [falling, full curve, poor fit]"
12,COc1ccc(NC(=O)N2CCCC(c3nc(-c4ccc(C(C)C)cc4)no3)C2)cc1 (stereo unspecified),"12.6 µM [falling, partial curve, poor fit]"
13,COC(=O)c1ccc(CSc2ccc3nnc(-c4ccccn4)n3n2)o1,"10 µM [rising, partial curve]"
14,CCCC(=O)Nc1ccc(NC(=O)C2CC2)cn1,"25.1 µM [falling, single point]"
15,O=C(Nc1ccc2c(c1)OCCO2)C1CCN(S(=O)(=O)c2cccs2)CC1,"0.631 µM [falling, partial curve]"
16,Cc1ccc(C)c2[nH]c(=O)c(CCNC(=O)c3ccc(S(=O)(=O)N(C)C)cc3)cc12,"25.1 µM [rising, single point]"
17,Cc1cc(NC(=O)C2CCCCC2C(=O)O)no1 (stereo unspecified),"2 µM [rising, partial curve]"
18,CC(=NCc1ccco1)c1c(C)[nH]n(-c2nc3ccccc3s2)c1=O,"10 µM [rising, single point]"
19,Cc1cc(/C=N/n2cnnc2)c(C)n1-c1cc(Cl)ccc1Cl,"3.16 µM [rising, partial curve]"
20,Nn1c(SCC(=O)Nc2ccc(F)cc2)nnc1-c1ccccn1,"2.51 µM [falling, full curve, poor fit]"
21,Cc1nc2nc[nH]n2c(=O)c1NC(=O)c1c(-c2ccccc2Cl)noc1C,"0.01 µM [falling, full curve, poor fit]"
22,CCCCCCn1c(N2CCN(c3cccc(Cl)c3)CC2)nc2c1c(=O)[nH]c(=O)n2C,"6.31 µM [falling, partial curve]"

# 4 compounds picked at random from those above:
row,SMILES,AC50
16,Cc1ccc(C)c2[nH]c(=O)c(CCNC(=O)c3ccc(S(=O)(=O)N(C)C)cc3)cc12,"25.1 µM [rising, single point]"
5,CCOc1ccc(C2C=C(c3ccc(C)cc3)Nc3nnnn32)cc1 (stereo unspecified),"12.6 µM [rising, single point]"
6,CN(C)Cc1ccccc1-c1nc(N2CCOCC2)c2ccccc2n1,"6.31 µM [rising, partial curve]"
11,COc1ccc(-n2nc(C(=O)NCC(=O)NCc3ccco3)c3ccccc3c2=O)cc1Cl,"0.00398 µM [falling, full curve, poor fit]"

# (continued)

row,SMILES,AC50
1,CCCCCCC(=O)c1c(C)[nH]c(C(=O)OCC)c1C,"15.8 µM [rising, single point]"
2,COC(=O)C1=CNC=C(C(=O)OC)C1c1ccccc1Cl,"10 µM [rising, partial curve]"
3,Cc1ccccc1-c1cncnc1N1CCN(C)CC1,"5.01 µM [rising, single point]"
4,Cc1cc(C)n(-c2nc3ccccc3c(=O)n2OCc2ccc(F)cc2)n1,"1.58 µM [falling, partial curve]"
5,COc1cccc(-n2nnnc2SCC(=O)Nc2cccc(C)n2)c1,"3.16 µM [falling, single point]"
6,Cc1noc(C)c1-c1ccc2ncnc(N(C)Cc3ccco3)c2c1,"5.01 µM [rising, partial curve]"
7,Cc1nc(SCC(=O)Nc2ccccc2)c2oc3ccccc3c2n1,"1.26 µM [rising, partial curve]"
8,COc1ccc(CCNC(=O)Cn2nnc(-c3cccc(OC)c3OC)n2)cc1OC,"12.6 µM [rising, partial curve]"
9,CN1CCN(c2ncc3nc(-c4cccs4)c(=O)n(Cc4cccs4)c3n2)CC1,"1.26 µM [rising, full curve]"
10,O=C(COC(=O)c1cccs1)c1ccccc1,"5.01 µM [falling, single point]"
11,CS(=O)(=O)c1cccc(C(=O)Oc2ccccc2)c1,"5.01 µM [falling, single point]"
12,COC(=O)c1ccc2c(c1)NC(=O)C(N1CCCC1)S2 (stereo unspecified),"25.1 µM [rising, single point]"
13,O=C(CSc1nnc(-c2ccncc2)o1)Nc1ccccc1Cl,"25.1 µM [rising, single point]"
14,CN(C)C=Nc1ncc2c3ccccc3n(Cc3ccccc3)c2c1C#N,"12.6 µM [rising, single point]"
15,c1ccc(CNc2nc(-c3cccnc3)nc3ccccc23)cc1,"5.01 µM [rising, partial curve]"
16,N=C(N=C(N)N)N1CCOCC1,"10 µM [rising, partial curve]"
17,COc1ccc(Oc2ncc3nc(CCc4ccccc4)c(=O)n(C[C@H]4CCCO4)c3n2)cc1,"0.501 µM [falling, single point]"
18,CCSC1(SCC)N=C(N)C2(C#N)C(c3ccc(OC)c(OC)c3OC)C12C#N (stereo unspecified),"10 µM [falling, partial curve]"
19,Cc1ccccc1OCC(=O)Nc1ccc(N2CCN(C(=O)C(C)C)CC2)c(Cl)c1,"15.8 µM [falling, single point]"
20,CN(C)C(=O)c1ccc(-c2nc(N(C)Cc3ccco3)c3ccccc3n2)cc1,"12.6 µM [rising, partial curve]"
21,c1ccc(-c2nnc(CSc3nncs3)o2)cc1,"3.98 µM [falling, single point]"
22,CC(C)C[C@@H](CC(=O)N[C@H](CC(=O)N[C@@H]1CCCC[C@H]1C(=O)N[C@H](CC(=O)N[C@@H](CCC(=O)O)CC(=O)O)CC(C)C)C(C)C)NC(=O)[C@@H]1CCCC[C@H]1N,"10 µM [falling, single point]"
